From PMC7356578 come the findings set out here.

Chains of the proteins cited; added tags and fusions are not shown. Residues count along the entry.
UniProt P06870, residues 25-262: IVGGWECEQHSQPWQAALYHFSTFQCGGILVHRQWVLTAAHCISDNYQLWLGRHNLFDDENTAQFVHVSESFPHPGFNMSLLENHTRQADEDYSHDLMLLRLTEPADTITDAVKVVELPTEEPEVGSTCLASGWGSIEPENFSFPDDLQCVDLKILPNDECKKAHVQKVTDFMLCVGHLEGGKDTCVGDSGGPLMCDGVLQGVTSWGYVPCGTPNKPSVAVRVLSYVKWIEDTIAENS

The target in assay [1] is Recombinant human tissue kallikrein 1 (KLK1), wild type (human) (UniProt P06870). As to the kind of experiment: SDS-stable covalent serpin-protease complex on reducing SDS-PAGE; 2 µg rKAL with 0.5 µg KLK1, 3 min, room temperature, 20 µL PBS, in the presence of 1 mM heparin oligosaccharide DP8, DP10 or DP12; both purified.
For assay [2] the target is unchanged. In words: SDS-stable covalent serpin-protease complex on reducing SDS-PAGE; as a1 but in the presence of low molecular weight heparin (LMWH); both purified.

Results are given in words; binding and its absence hold for the method and conditions named. Some binding calls cover weakened binding; strength is not graded here.

B1: Recombinant human kallistatin (rKAL), wild type (protein, UniProt P29622 45-427)
chain: GSPSLKIAPANADFAFRFYYLIASETPGKNIFFSPLSISAAYAMLSLGACSHSRSQILEGLGFNLTELSESDVHRGFQHLLHTLNLPGHGLETRVGSALFLSHNLKFLAKFLNDTMAVYEAKLFHTNFYDTVGTIQLINDHVKKETRGKIVDLVSELKKDVLMVLVNYIYFKALWEKPFISSRTTPKDFYVDENTTVRVPMMLQDQEHHWYLHDRYLPCSVLRMDYKGDATVFFILPNQGKMREIEEVLTPEMLMRWNNLLRKRNFYKKLELHLPKFSISGSYVLDQILPRLGFTDLFSKWADLSGITKQQKLEASKSFHKATLDVDEAGTEAAAATSFAIKFFSAQTNRHILRFNRPFLVVIFSTSTQSVLFLGKVVDPTKP
Consider B1, for which the binding result in assay [1] and in assay [2] was “binds weakly” each time.
